In patent EP0678100B1, “SYNTHETIC AMPHIPATHIC PEPTIDES WITH ANTIMICROBIAL ACTIVITY” (PIONEER HI-BRED INTERNATIONAL, INC., priority 1993, dated 1998):
At least one peptide structure holds a part that was inferred or is arguable (an end, a ring closure or a residue). Residues, ends and D or L forms follow the SMILES beside them. No end group written: not given here.

Tests used:
F. moniliforme = settings: Minimum Complete Inhibitory Concentration, achieving a score of 3 or greater
A. flavus = settings: Minimum Complete Inhibitory Concentration, achieving a score of 3 or greater

Row | Compound | MCIC (F. moniliforme) | MCIC (A. flavus)
1 | CC[C@H](C)[C@H](NC(=O)CNC(=O)[C@@H](NC(=O)[C@@H](NC(=O)[C@@H](NC(=O)CNC(=O)[C@@H]1CCCN1C(=O)CNC(=O)[C@H](C)NC(=O)[C@H](CCCCN)NC(=O)[C@@H](NC(=O)[C@H](CCCCN)NC(=O)[C@H](CCCCN)NC(=O)[C@@H]1CCCN1C(=O)[C@@H](NC(=O)[C@H](Cc1c[nH]cn1)NC(=O)[C@H](CCCCN)NC(=O)[C@@H](NC(=O)[C@H](C)NC(=O)[C@H](CCCCN)NC(=O)[C@H](CCC(=O)O)NC(=O)[C@@H](NC(=O)[C@H](CCCCN)NC(=O)[C@@H](N)CCCCN)[C@@H](C)CC)[C@@H](C)CC)[C@@H](C)CC)[C@@H](C)CC)C(C)C)[C@@H](C)O)[C@@H](C)CC)C(=O)N[C@@H](C)C(=O)N[C@@H](Cc1c[nH]cn1)C(=O)N[C@@H](C)C(=O)N[C@@H](CCCCN)C(=O)N[C@@H](CO)C(=O)N[C@@H](CCC(N)=O)C(=O)N[C@@H](CC(C)C)C(=O)N[C@@H](Cc1c[nH]c2ccccc12)C(=O)O [Peptide 1] (H-KKIEKAIKHIPKKIKAGPGVTIGIAHAKSQLW-OH) | >40 µg/mL | –
2 | CC[C@H](C)[C@H](NC(=O)CNC(=O)[C@@H](NC(=O)[C@@H](NC(=O)[C@@H](NC(=O)CNC(=O)[C@@H]1CCCN1C(=O)CNC(=O)[C@H](C)NC(=O)[C@H](CCCCN)NC(=O)[C@H](Cc1c[nH]c2ccccc12)NC(=O)[C@H](Cc1c[nH]cn1)NC(=O)[C@H](CCCNC(=N)N)NC(=O)[C@H](C)NC(=O)[C@H](CC(C)C)NC(=O)[C@H](C)NC(=O)[C@H](CCCNC(=N)N)NC(=O)[C@H](CC(C)C)NC(=O)[C@H](C)NC(=O)[C@H](CCCCN)NC(=O)[C@H](CCCCN)NC(=O)[C@H](CC(C)C)NC(=O)[C@@H](N)CCCCN)C(C)C)[C@@H](C)O)[C@@H](C)CC)C(=O)N[C@@H](C)C(=O)N[C@@H](Cc1c[nH]cn1)C(=O)N[C@@H](C)C(=O)N[C@@H](CCCCN)C(=O)N[C@@H](CO)C(=O)N[C@@H](CCC(N)=O)C(=O)N[C@@H](CC(C)C)C(=O)N[C@@H](Cc1c[nH]c2ccccc12)C(=O)O [Peptide 2] (H-KLKKALRALARHWKAGPGVTIGIAHAKSQLW-OH) | 39 µg/mL | –
3 | CC[C@H](C)[C@H](NC(=O)CNC(=O)[C@@H](NC(=O)[C@@H](NC(=O)[C@@H](NC(=O)CNC(=O)[C@@H]1CCCN1C(=O)CNC(=O)[C@H](C)NC(=O)[C@H](CC(C)C)NC(=O)[C@H](C)NC(=O)[C@H](CCCNC(=N)N)NC(=O)[C@@H](NC(=O)[C@H](CCCCN)NC(=O)[C@@H](NC(=O)[C@H](CCCCN)NC(=O)[C@H](CCCCN)NC(=O)[C@@H]1CCCN1C(=O)[C@@H](NC(=O)[C@H](Cc1c[nH]cn1)NC(=O)[C@H](CCCCN)NC(=O)[C@@H](NC(=O)[C@H](C)NC(=O)[C@H](CCCCN)NC(=O)[C@H](CCC(=O)O)NC(=O)[C@@H](NC(=O)[C@H](CCCCN)NC(=O)[C@H](CCCCN)NC(=O)[C@@H](NC(=O)[C@H](C)NC(=O)[C@H](CCCNC(=N)N)NC(=O)[C@@H](N)CCC(N)=O)C(C)C)[C@@H](C)CC)[C@@H](C)CC)[C@@H](C)CC)[C@@H](C)CC)[C@@H](C)CC)C(C)C)[C@@H](C)O)[C@@H](C)CC)C(=O)N[C@@H](C)C(=O)N[C@@H](Cc1c[nH]cn1)C(=O)N[C@@H](C)C(=O)N[C@@H](CCCCN)C(=O)N[C@@H](CO)C(=O)N[C@@H](CCC(N)=O)C(=O)N[C@@H](CC(C)C)C(=O)N[C@@H](Cc1c[nH]c2ccccc12)C(=O)O [Peptide 4] (H-QRAVKKIEKAIKHIPKKIKIRALAGPGVTIGIAHAKSQLW-OH) | 136 µg/mL | –
4 | CC[C@H](C)[C@H](NC(=O)[C@H](C)NC(=O)[C@H](CCCCN)NC(=O)[C@H](CCC(=O)O)NC(=O)[C@@H](NC(=O)[C@H](CCCCN)NC(=O)[C@@H](N)CCCCN)[C@@H](C)CC)C(=O)N[C@@H](CCCCN)C(=O)N[C@@H](Cc1c[nH]cn1)C(=O)N[C@H](C(=O)N1CCC[C@H]1C(=O)N[C@@H](CCCCN)C(=O)N[C@@H](CCCCN)C(=O)N[C@H](C(=O)N[C@@H](CCCCN)C(=O)N[C@@H](CC(C)C)C(=O)N[C@@H](CCCCN)C(=O)N[C@@H](CCCCN)C(=O)N[C@@H](C)C(=O)N[C@@H](CC(C)C)C(=O)N[C@@H](CCCNC(=N)N)C(=O)N[C@@H](C)C(=O)N[C@@H](CC(C)C)C(=O)N[C@@H](C)C(=O)N[C@@H](CCCNC(=N)N)C(=O)N[C@@H](Cc1c[nH]cn1)C(=O)N[C@@H](Cc1c[nH]c2ccccc12)C(=O)N[C@@H](CCCCN)C(=O)O)[C@@H](C)CC)[C@@H](C)CC [Peptide 10] (H-KKIEKAIKHIPKKIKLKKALRALARHWK-OH) | 10 µg/mL | >80 µg/mL
5 | IRALQRAVRHPRAIRRIYRGWKKAIRAGPGVTIGIAHAKSQLW [Peptide 6] | 40 µg/mL | >80 µg/mL
